Test results reported in the supplement of paper PMC10849652.
The other results are listed elsewhere or left out.

By UniProt entry, the sequences of proteins in these tests, tags left out. Where a name states a change or a piece, a line headed by the entry shows the natural chain unless it says otherwise.
UniProt Q96RR4, whole entry, looked up: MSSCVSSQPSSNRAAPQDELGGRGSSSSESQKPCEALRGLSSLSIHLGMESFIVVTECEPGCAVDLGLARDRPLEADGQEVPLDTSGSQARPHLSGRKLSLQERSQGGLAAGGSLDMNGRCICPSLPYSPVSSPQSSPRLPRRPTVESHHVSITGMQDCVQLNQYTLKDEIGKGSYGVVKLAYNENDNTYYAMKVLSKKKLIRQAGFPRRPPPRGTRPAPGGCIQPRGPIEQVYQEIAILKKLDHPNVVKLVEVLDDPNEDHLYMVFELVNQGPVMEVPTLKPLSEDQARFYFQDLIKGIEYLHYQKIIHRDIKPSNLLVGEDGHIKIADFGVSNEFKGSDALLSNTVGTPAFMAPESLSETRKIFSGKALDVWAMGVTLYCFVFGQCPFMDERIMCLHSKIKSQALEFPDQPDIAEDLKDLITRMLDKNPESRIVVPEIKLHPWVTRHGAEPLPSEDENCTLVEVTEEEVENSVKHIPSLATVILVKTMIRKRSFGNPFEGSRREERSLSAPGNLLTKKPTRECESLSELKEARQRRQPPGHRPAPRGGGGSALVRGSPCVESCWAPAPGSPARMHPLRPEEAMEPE
UniProt Q96NL8: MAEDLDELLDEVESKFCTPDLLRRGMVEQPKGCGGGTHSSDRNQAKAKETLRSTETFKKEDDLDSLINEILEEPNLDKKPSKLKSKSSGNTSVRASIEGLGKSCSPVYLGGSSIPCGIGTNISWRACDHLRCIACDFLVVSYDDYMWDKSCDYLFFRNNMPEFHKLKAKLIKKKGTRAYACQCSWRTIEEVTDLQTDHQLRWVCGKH
UniProt Q8TCD1: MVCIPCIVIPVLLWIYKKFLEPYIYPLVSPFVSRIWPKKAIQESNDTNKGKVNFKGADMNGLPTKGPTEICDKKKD
UniProt Q8N999, whole entry, looked up: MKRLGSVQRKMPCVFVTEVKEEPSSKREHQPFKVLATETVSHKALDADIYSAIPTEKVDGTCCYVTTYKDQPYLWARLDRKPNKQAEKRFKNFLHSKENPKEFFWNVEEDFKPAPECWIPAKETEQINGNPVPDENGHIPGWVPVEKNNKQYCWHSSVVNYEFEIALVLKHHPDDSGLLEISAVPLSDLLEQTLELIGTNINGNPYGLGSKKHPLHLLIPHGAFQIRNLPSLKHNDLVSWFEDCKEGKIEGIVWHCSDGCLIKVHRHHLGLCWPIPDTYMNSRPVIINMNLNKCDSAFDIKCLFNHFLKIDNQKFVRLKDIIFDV
UniProt Q96GV9: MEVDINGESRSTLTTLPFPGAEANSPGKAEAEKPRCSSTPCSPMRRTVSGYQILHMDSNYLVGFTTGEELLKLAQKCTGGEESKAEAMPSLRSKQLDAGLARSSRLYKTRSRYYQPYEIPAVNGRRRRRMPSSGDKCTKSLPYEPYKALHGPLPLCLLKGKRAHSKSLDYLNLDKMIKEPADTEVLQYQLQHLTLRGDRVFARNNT
UniProt O43684, whole entry, looked up: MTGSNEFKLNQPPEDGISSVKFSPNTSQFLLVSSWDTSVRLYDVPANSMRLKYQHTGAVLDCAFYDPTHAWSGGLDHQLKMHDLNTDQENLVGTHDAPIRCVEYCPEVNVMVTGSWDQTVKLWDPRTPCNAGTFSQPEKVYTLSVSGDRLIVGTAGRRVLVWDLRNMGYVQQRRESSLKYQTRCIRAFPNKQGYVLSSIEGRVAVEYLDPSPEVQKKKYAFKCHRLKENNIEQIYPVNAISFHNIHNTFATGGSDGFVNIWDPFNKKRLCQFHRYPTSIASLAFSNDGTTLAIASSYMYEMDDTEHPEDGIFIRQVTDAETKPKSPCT
UniProt P05937: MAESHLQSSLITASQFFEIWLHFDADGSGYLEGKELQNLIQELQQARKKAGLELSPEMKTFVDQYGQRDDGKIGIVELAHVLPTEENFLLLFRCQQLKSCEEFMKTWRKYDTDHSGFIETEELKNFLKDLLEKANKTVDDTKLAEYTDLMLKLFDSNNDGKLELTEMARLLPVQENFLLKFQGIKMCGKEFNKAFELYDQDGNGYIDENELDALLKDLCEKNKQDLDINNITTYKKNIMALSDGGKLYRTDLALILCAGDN
UniProt Q8WUQ7: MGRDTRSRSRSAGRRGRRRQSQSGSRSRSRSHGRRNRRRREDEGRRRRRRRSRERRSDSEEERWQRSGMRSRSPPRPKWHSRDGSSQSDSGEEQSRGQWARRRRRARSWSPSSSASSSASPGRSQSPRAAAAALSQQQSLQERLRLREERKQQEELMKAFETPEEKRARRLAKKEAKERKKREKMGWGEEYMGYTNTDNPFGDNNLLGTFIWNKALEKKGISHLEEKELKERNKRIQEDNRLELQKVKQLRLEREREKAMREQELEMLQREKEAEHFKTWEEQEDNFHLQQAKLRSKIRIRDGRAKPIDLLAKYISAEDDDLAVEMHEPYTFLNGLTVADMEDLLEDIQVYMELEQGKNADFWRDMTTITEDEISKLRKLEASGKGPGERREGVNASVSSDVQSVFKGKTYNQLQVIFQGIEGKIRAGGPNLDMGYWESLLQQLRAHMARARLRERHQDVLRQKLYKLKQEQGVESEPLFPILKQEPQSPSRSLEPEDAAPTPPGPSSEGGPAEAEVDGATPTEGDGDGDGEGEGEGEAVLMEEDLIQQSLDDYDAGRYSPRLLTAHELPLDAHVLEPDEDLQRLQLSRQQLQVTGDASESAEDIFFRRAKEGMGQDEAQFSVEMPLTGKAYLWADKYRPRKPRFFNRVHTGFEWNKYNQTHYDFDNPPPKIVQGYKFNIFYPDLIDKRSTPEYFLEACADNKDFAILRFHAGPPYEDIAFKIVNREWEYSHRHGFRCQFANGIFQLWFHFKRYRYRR
UniProt Q8N5I9: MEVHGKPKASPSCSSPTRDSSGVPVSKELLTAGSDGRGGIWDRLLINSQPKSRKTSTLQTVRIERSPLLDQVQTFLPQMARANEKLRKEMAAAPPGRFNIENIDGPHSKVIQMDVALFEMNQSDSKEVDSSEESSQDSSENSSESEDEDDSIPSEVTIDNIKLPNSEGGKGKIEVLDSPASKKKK
UniProt P27797, whole entry, looked up: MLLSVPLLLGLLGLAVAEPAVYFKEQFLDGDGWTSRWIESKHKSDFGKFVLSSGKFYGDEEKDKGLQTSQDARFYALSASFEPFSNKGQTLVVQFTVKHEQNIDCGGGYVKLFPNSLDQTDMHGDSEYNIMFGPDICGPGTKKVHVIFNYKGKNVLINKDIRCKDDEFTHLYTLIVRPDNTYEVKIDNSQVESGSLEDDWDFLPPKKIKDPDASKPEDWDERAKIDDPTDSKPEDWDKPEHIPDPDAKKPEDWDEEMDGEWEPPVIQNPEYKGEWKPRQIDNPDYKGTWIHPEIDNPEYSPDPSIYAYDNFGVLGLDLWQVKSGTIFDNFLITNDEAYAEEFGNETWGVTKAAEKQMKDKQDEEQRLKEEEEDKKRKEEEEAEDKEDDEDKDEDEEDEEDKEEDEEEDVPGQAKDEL
UniProt Q5T6V5: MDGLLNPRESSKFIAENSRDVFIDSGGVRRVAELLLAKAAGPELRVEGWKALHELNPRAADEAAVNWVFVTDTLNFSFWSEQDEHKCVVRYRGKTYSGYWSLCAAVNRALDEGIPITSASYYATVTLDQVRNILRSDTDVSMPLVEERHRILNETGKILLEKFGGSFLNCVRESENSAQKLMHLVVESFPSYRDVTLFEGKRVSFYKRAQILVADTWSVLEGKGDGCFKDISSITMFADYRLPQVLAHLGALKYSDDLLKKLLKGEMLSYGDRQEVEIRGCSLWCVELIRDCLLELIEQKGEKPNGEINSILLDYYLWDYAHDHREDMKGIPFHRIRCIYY
UniProt Q86VG3: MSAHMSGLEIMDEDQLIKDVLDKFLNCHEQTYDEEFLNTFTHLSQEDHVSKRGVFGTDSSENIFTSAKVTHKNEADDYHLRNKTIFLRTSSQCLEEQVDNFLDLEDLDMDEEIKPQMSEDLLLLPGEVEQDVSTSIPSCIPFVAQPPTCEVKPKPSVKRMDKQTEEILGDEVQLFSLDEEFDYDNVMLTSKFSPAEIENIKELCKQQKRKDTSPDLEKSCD
UniProt Q8IXQ3: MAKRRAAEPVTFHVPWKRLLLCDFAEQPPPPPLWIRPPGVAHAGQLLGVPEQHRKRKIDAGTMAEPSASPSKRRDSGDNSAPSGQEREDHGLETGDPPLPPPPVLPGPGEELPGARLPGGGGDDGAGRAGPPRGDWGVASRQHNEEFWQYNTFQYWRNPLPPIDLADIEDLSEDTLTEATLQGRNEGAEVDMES
UniProt Q8WUR7: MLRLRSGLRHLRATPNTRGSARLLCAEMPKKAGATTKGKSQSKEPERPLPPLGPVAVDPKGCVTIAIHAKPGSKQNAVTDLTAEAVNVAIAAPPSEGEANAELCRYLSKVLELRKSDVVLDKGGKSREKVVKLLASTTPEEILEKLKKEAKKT
UniProt O43852: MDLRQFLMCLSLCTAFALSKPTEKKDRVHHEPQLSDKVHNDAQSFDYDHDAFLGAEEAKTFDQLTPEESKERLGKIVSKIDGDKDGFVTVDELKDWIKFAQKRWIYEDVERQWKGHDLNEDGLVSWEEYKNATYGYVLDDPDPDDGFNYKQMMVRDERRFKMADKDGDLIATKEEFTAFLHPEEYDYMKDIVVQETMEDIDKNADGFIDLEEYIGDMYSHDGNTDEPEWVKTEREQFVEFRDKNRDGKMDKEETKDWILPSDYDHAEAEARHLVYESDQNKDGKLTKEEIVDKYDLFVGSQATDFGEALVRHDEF
UniProt Q07021: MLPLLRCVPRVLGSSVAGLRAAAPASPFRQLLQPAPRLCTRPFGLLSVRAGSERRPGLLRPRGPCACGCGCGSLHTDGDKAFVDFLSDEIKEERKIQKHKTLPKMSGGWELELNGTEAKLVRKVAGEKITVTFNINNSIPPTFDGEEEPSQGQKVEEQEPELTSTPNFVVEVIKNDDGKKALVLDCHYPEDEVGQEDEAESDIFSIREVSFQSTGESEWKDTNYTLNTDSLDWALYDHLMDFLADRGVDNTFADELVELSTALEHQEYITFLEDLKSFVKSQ
UniProt Q6P1X6: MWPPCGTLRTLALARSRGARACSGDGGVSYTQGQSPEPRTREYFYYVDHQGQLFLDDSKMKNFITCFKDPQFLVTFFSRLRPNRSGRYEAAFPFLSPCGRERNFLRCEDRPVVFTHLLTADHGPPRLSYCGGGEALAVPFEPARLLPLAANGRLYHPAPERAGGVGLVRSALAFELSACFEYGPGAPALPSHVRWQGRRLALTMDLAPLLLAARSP
UniProt O60566, whole entry, looked up: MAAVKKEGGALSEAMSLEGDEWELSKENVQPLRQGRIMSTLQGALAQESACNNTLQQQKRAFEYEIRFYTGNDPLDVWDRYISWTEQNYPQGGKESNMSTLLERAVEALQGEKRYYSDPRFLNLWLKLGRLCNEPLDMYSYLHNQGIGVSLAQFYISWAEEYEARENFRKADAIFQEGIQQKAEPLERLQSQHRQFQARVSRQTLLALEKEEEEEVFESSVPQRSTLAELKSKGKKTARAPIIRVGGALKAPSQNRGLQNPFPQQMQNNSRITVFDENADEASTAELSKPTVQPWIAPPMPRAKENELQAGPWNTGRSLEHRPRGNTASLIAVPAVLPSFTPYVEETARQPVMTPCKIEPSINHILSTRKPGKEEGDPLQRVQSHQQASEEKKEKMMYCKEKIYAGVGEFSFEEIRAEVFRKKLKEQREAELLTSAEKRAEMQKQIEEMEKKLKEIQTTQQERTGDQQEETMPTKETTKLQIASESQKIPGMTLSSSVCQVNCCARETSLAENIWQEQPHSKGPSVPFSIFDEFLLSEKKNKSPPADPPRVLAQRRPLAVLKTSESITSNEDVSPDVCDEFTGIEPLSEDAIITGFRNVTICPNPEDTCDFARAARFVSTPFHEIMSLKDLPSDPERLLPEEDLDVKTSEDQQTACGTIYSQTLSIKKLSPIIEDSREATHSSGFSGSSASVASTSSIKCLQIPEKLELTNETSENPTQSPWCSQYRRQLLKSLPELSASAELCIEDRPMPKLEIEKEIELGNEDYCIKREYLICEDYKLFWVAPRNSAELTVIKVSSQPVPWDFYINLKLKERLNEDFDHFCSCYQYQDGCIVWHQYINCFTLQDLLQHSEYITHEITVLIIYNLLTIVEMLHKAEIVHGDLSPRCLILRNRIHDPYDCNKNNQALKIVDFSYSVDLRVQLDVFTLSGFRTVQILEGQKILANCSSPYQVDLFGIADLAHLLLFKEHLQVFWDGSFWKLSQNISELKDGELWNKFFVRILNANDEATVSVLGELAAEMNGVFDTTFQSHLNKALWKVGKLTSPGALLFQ
UniProt Q96N11, whole entry, looked up: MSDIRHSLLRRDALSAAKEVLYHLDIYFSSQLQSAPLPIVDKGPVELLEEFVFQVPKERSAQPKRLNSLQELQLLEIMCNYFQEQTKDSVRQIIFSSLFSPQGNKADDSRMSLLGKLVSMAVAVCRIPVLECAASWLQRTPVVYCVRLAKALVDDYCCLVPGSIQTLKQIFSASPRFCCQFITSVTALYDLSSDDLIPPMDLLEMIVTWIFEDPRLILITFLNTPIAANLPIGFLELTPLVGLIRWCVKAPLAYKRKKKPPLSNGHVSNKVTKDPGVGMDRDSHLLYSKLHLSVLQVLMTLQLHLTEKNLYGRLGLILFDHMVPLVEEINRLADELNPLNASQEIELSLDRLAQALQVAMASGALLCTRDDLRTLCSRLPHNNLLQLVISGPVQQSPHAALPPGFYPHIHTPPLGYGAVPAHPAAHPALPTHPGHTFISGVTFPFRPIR

compound: O=C(O)c1ccc2c(c1)nc(Nc1cccc(Cl)c1)c1ccncc12 [silmitasertib]; assay: log2 fold change, soluble protein after heating vs DMSO (PISA); higher = thermal stabilisation; K562 lysate, 10 uM; active = over 0.2 and 3.5 SD of the protein, either way, in both replicates (recomputed)
How it was run: (§1)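 Following dounce homogenisation of K562 pellets in PBS pH 7.4 with 1 mM MgCl2, crude extract at 1 mg/mL protein was incubated for 30 min with 10 μM compound. Aliquots were then heated for 3 min over 48°C-58°C and pooled, NP-40 was added to 0.5% at 4°C, and soluble protein was recovered as the supernatant at 21,000xg for 90 min. Channel-sum-equalised TMTpro 16plex LC-MS/MS quantified this protein. Each value, from duplicates, is a log-two fold change in thermal stability relative to solvent controls.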

log2 fold change, inactive:
CAND1 (UniProt Q86VP6) -0.009
CAMKK2 (UniProt Q96RR4) 0.074
C16orf70 (UniProt Q9BSU1) 0.019
C8orf37 (UniProt Q96NL8) 0.044
C9orf78 (UniProt Q9NZ63) -0.041
C18orf32 (UniProt Q8TCD1) -0.021
C12orf29 (UniProt Q8N999) 0.026
CA13 (UniProt Q8N1Q1) 0.013
C5orf30 (UniProt Q96GV9) 0.045
BUB3 (UniProt O43684) -0.007
C5orf34 (UniProt Q96MH7) 0.015
CALB1 (UniProt P05937) -0.019
CACTIN isoform 2 (UniProt Q8WUQ7) -0.049
C12orf45 (UniProt Q8N5I9) -0.059
C17orf75 (UniProt Q9HAS0) 0.02
C1orf52 (UniProt Q8N6N3) -0.117
CALR (UniProt P27797) 0.008
CAD (UniProt H7BZB3) -0.006
C2orf69 (UniProt Q8N8R5) -0.055
CALM2 (UniProt P0DP24) 0.064
C2CD2L (UniProt O14523) 0.013
C9orf64 (UniProt Q5T6V5) -0.005
C11orf74 (UniProt Q86VG3) -0.028
CANX isoform 2 (UniProt P27824) -0.004
C2orf49 (UniProt Q9BVC5) -0.065
CAPZA2 (UniProt P47755) 0.019
C9orf40 (UniProt Q8IXQ3) 0.027
C15orf40 (UniProt Q8WUR7) -0.046
CALU isoform 4 (UniProt O43852) 0.015
C7orf25 isoform 2 (UniProt Q9BPX7) 0.12
CAPG (UniProt P40121) -0.026
CAPZA1 (UniProt P52907) -0.071
CAPN1 (UniProt P07384) -0.005
C8orf76 (UniProt Q96K31) 0.044
C1QBP (UniProt Q07021) -0.002
CA1 (UniProt P00915) 0.004
C8orf82 (UniProt Q6P1X6) -0.005
BUB1B isoform 3 (UniProt O60566) 0.015
C20orf27 isoform 2 (UniProt Q9GZN8) -0.043
C7orf26 (UniProt Q96N11) -0.006

compound: O=C1NC(=O)C(c2cnc3ccccn23)=C1c1cn2c3c(cc(F)cc13)CN(C(=O)N1CCCCC1)CC2; assay: as above
How it was run: as §1

log2 fold change, inactive:
CAND1 (UniProt Q86VP6) -0.003
CAMKK2 (UniProt Q96RR4) -0.02
C16orf70 (UniProt Q9BSU1) -0.015
C8orf37 (UniProt Q96NL8) 0.008
C9orf78 (UniProt Q9NZ63) -0.046
C18orf32 (UniProt Q8TCD1) 0.017
C12orf29 (UniProt Q8N999) 0.003
CA13 (UniProt Q8N1Q1) 0.046
C5orf30 (UniProt Q96GV9) 0.102
BUB3 (UniProt O43684) -0.029
CALB1 (UniProt P05937) -0.005
CACTIN isoform 2 (UniProt Q8WUQ7) 0.018
C12orf45 (UniProt Q8N5I9) -0.027
C17orf75 (UniProt Q9HAS0) 0.015
C1orf52 (UniProt Q8N6N3) -0.002
CALR (UniProt P27797) -0.01
C2orf69 (UniProt Q8N8R5) -0.009
CALM2 (UniProt P0DP24) -0.121
C2CD2L (UniProt O14523) 0.058
C9orf64 (UniProt Q5T6V5) 0.016
C11orf74 (UniProt Q86VG3) -0.075
CANX isoform 2 (UniProt P27824) -0.015
C2orf49 (UniProt Q9BVC5) 0.001
CAPZA2 (UniProt P47755) -0.011
C9orf40 (UniProt Q8IXQ3) -0.049
C15orf40 (UniProt Q8WUR7) 0.007
CALU isoform 4 (UniProt O43852) -0.017
C7orf25 isoform 2 (UniProt Q9BPX7) -0.068
CAPG (UniProt P40121) -0.021
CAPZA1 (UniProt P52907) -0.012
CAPN1 (UniProt P07384) -0.007
C8orf76 (UniProt Q96K31) -0.044
C1QBP (UniProt Q07021) 0.001
CA1 (UniProt P00915) -0.03
C8orf82 (UniProt Q6P1X6) -0.022
BUB1B isoform 3 (UniProt O60566) 0.006
C20orf27 isoform 2 (UniProt Q9GZN8) 0.017
C7orf26 (UniProt Q96N11) -0.084
